According to paper PMC9100673, “Acridine Based N-Acylhydrazone Derivatives as Potential Anticancer Agents: Synthesis, Characterization and ctDNA/HSA Spectroscopic Binding Properties” (Molecules, 2022):

tested on: calf thymus DNA (ctDNA); assay: UV-Vis absorption titration with ctDNA (Benesi-Hildebrand); type: binding; conditions: compound 25 μM, ctDNA up to 680 μM, pH 7.4, room temperature
Excerpt: Changes in absorbance intensity (either hyperchromic or hypochromic) and a shift in the peak position (hypsochromicity or batochromicity) are typical spectral properties closely related to the interaction of a drug with DNA [60, 61]. […] The absorption spectra of compounds 3a–3d in the presence of increasing concentrations of ctDNA show hypochromicity (16–51%) and a slight hypsochromic shift (Δλ = 1–9 nm, 3a–3d), findings which indicate that the acridine derivatives have interacted with DNA (Table 3). […] Hypochromism typically occurs as a result of the contraction of ctDNA in the helix axis, and this conformation change is often a result of a surface binding complex developing between the small molecules and the DNA, either through external contact or in the case of strong interaction between the small molecules and DNA [62, 63]. Classical intercalating compounds are able to couple their π orbital with the π of the base pair of DNA during intercalation into DNA, thereby decreasing the π → π* transition energies and inducing hypochromism combined with a batochromic shift. In contrast, electrostatic interaction can also show hyperchromism, an effect that indicates the increasing likelihood of electrons in the π–π* transition of the extended resonance system. This process is usually accompanied by a hypsochromic shift as a response to the increasing electron density in π-orbitals; it also stabilizes the orbitals and results in an increase in the energy gap between the π and π* orbitals. On this basis, it is possible to state with confidence that the observed changes in the absorption spectra of acridine derivatives 3a–3d in the presence ctDNA are a result of the electron-rich DNA donating electrons to the π-orbitals of the system.
The binding constant Kb of compounds 3a–3d was determined using the modified Benesi-Hildebrand Equation (6):(6) A0/A−A0=εB/εB + DNA+εB/εB + DNA × 1/KbDNA, where A0 and A are the absorbances of the acridine derivatives in the absence and presence of ctDNA; εB and εB + DNA are the molar extinction coefficients of the acridine derivatives individually and in the bound complex, respectively; Kb is the binding constant; and [DNA] is the concentration of ctDNA. The binding constant Kb was estimated from the intercept-to-slope ratios of A0/(A − A0) vs. 1/[DNA] plots (insert graph Figure 6). The values of binding constant for the interaction of the acridine derivatives with ctDNA increased in the following relation: 3d < 3c < 3a < 3b.
UV-Vis absorption spectrum of the drug-ctDNA complexes were measured on a Varian Cary 100 Bio UV-Vis Spectrophotometer. The UV-Vis spectra of free compounds 3a–3d and drug-ctDNA complexes were recorded at the wavelength range of 220 to 600 nm. The measurements were performed in a 1.0 cm quartz cuvette with 2 mL of a Tris-HCl (10 mM, pH = 7.4) buffer at room temperature. The titration experiment was carried out in the presence of a fixed concentration of compounds 3a–3d (25 μM) and was performed by titrating varying concentrations of ctDNA ranging from 0 to 680 μM. The solution was incubated for 5 min and then tested.

| Structure (SMILES) | H, hypochromicity at λmax | Δλ, hypsochromic shift (blue shift) of absorption peak |
| --- | --- | --- |
| O=C(N/N=C/c1cccc2cc3ccccc3nc12)c1ccc(Br)cc1 [3d, N′-[(E)-Acridin-4-ylmethylidene]-4-bromobenzohydrazide] | 16% | 1 nm |
| O=C(N/N=C/c1cccc2cc3ccccc3nc12)c1ccc(Cl)cc1 [3c, N′-[(E)-Acridin-4-ylmethylidene]-4-chlorobenzohydrazide] | 17% | 1 nm |
| O=C(N/N=C/c1cccc2cc3ccccc3nc12)c1ccccc1 [3a, N′-[(E)-(Acridin-4-yl)methylidene]benzohydrazide] | 44% | 3 nm |
| O=C(N/N=C/c1cccc2cc3ccccc3nc12)c1ccc(F)cc1 [3b, N′-[(E)-Acridin-4-ylmethylidene]-4-fluorobenzohydrazide] | 51% | 9 nm |
